Measured data: PubChem BioAssay AID1259331 (Drosophila RNAi Screening Center, 2017)
In all, the deposit lists about 3,100 reagents; below is a part drawn at random. 126 of all reagents (4.1%) count as active. 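Calls are per reagent; zinc was so toxic that few knock-downs lowered ATP further, so most hits raise ATP.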 Raw values are not corrected between plates. Names joined by + are all predicted targets of the reagent. Reagent sequences are not shown. Not stated in the record: the amount of reagent.

Screen: 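Fly transmembrane-protein genes that affect zinc toxicity in cultured cells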 (primary screen)
Cell system: Drosophila S2R+ cells
Reagent: long dsRNA against Drosophila genes
Duration: 5 days (4 days knock-down, then 1 day zinc)
Conditions: zinc chloride at 15 mM final level for 1 day
Read-out: 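Total cellular ATP measured by luciferase luminescence as a viability proxy, turned into Z scores from three plate copies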
Reading the numbers: mean Z score: higher = more ATP than other wells, better survival under zinc; ATP luminescence: higher = more ATP, more viable cells
Hit rule: 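Hit when the absolute Z score is greater than 1.5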
Meaning of the calls: active = hit, ATP up or down; inactive = not a hit

Gene | DRSC id | mean Z score | ATP luminescence, replicate 1 | ATP luminescence, replicate 2 | Call
osy | DRSC14903 | 0.44 | 74306 | 72362 | inactive
osy | DRSC15979 | 0.0905 | 39542 | 44445 | inactive
osy | DRSC15981 | -0.2 | 39662 | 46931 | inactive
alphaKap4 | DRSC09823 | -0.753 | 69282 | 53721 | inactive
alphaKap4 | DRSC39588 | -0.455 | 53807 | 50875 | inactive
CG4743 | DRSC15636 | -0.243 | 35873 | 55539 | inactive
CG7992 | DRSC20070 | -0.468 | 38942 | 38308 | inactive
Vha100-5 | DRSC02175 | -0.236 | 51149 | 36233 | inactive
Vha100-5 | DRSC26439 | -0.611 | 57237 | 47274 | inactive
CG5421 | DRSC02858 | -0.361 | 44964 | 38839 | inactive
CG5421 | DRSC24636 | -0.0669 | 61504 | 40980 | inactive
mnd | DRSC11370 | 0.0155 | 77616 | 60829 | inactive
mnd | DRSC39608 | -0.176 | 59346 | 58456 | inactive
MME1 | DRSC02714 | 0.0111 | 54013 | 58889 | inactive
MME1 | DRSC39544 | 0.162 | 47617 | 58626 | inactive
Shal | DRSC09625 | -0.604 | 58368 | 53658 | inactive
Shal | DRSC11283 | 0.126 | 78378 | 63616 | inactive
ppk20 | DRSC16260 | 0.914 | 74935 | 87594 | inactive
ppk20 | DRSC28819 | 0.105 | 61452 | 64611 | inactive
CG13654 | DRSC14654 | 0.8 | 35145 | 65074 | inactive
CG13654 | DRSC39888 | -0.508 | 49469 | 54887 | inactive
CG17637 | DRSC11740 | -0.271 | 71831 | 53516 | inactive
CG32081 | DRSC09861 | -0.128 | 72260 | 60392 | inactive
CG32081 | DRSC39618 | 0.125 | 64165 | 63719 | inactive
Icmt | DRSC09834 | -0.323 | 67252 | 56481 | inactive
Icmt | DRSC39884 | -0.557 | 31982 | 61318 | inactive
CG1632 | DRSC17558 | -0.906 | 60752 | 52504 | inactive
CG1632 | DRSC18110 | -0.513 | 57099 | 58008 | inactive
CG9706 | DRSC11095 | -0.251 | 27302 | 32924 | inactive
CG9706 | DRSC39822 | 1.46 | 75261 | 78537 | inactive
CG14855 | DRSC14979 | 0.868 | 44360 | 61318 | inactive
CG14855 | DRSC39527 | -0.259 | 48947 | 43828 | inactive
pes | DRSC03033 | -0.517 | 45570 | 41188 | inactive
pes | DRSC25954 | -0.379 | 52463 | 55539 | inactive
CG6231 | DRSC15997 | -0.655 | 35376 | 45916 | inactive

Records listed so far whose gene name starts with M or m:
Gene | DRSC id | mean Z score | ATP luminescence, replicate 1 | ATP luminescence, replicate 2 | Call
mnd | DRSC11370 | 0.0155 | 77616 | 60829 | inactive
mnd | DRSC39608 | -0.176 | 59346 | 58456 | inactive
MME1 | DRSC02714 | 0.0111 | 54013 | 58889 | inactive
MME1 | DRSC39544 | 0.162 | 47617 | 58626 | inactive

The results go on.
Gene | DRSC id | mean Z score | ATP luminescence, replicate 1 | ATP luminescence, replicate 2 | Call
Tsp96F | DRSC14147 | -0.538 | 42210 | 37810 | inactive
Tsp96F | DRSC39893 | -0.642 | 44651 | 52332 | inactive
Oamb | DRSC13433 | 0.326 | 1.16e5 | 66060 | inactive
Oamb | DRSC15120 | 2.95 | 75814 | 83855 | active
Oamb | DRSC16763 | 0.43 | 35307 | 63273 | inactive
Unc50 | DRSC16561 | 0.247 | 59689 | 62752 | inactive
Unc50 | DRSC28560 | 0.46 | 69172 | 67783 | inactive
CG13794 | DRSC02298 | -0.282 | 47189 | 40399 | inactive
CG13794 | DRSC25419 | -0.263 | 62856 | 47804 | inactive
Der-1 | DRSC00301 | 0.555 | 61146 | 67132 | inactive
Der-1 | DRSC39555 | 1.35 | 84394 | 74393 | inactive
Tsp42Er | DRSC06183 | -0.661 | 72637 | 61227 | inactive
Tmtc2 | DRSC24987 | 0.218 | 55951 | 73717 | inactive
Osi16 | DRSC21323 | 0.0362 | 48012 | 49986 | inactive
CG11961 | DRSC06099 | -0.378 | 27079 | 27369 | inactive
CG11961 | DRSC39529 | 1.92 | 81059 | 70097 | active
Vha16-1 | DRSC05020 | 1.7 | 1.08e5 | 1.05e5 | active
NtR | DRSC04628 | -0.486 | 41325 | 40142 | inactive
NtR | DRSC27686 | -0.855 | 40502 | 39850 | inactive
CG9240 | DRSC20177 | 0.693 | 78606 | 76445 | inactive
Vmat | DRSC22223 | 0.269 | 54613 | 62353 | inactive
sand | DRSC07245 | -0.104 | 71848 | 69824 | inactive
sand | DRSC39678 | -0.347 | 54150 | 59654 | inactive
CG11566 (retired record) + stg1 | DRSC20482 | -0.0728 | 40999 | 42279 | inactive
CG11566 (retired record) + stg1 | DRSC20483 | -0.276 | 35376 | 39318 | inactive
Orct2 | DRSC14613 | -0.386 | 41513 | 42456 | inactive
Orct2 | DRSC24714 | -0.257 | 43245 | 61369 | inactive
Sema1b | DRSC07550 | -0.477 | 25622 | 26650 | inactive
Sema1b | DRSC27552 | 0.231 | 62793 | 63256 | inactive
VhaM9.7-d | DRSC15028 | 0.417 | 54351 | 61061 | inactive
ORMDL | DRSC27778 | 0.236 | 60117 | 62433 | inactive
CG9747 | DRSC23910 | -0.194 | 53293 | 53814 | inactive
CG9747 | DRSC39676 | -0.122 | 59339 | 58612 | inactive
